# Assay results reported in the supplement of paper PMC6411743.
# ± gives the standard deviation of the averaged measurements. The list shows a part of the results.
# Molecular target: T1, NUDT8 (UniProt Q8WV74)
# T1 sequence (whole entry): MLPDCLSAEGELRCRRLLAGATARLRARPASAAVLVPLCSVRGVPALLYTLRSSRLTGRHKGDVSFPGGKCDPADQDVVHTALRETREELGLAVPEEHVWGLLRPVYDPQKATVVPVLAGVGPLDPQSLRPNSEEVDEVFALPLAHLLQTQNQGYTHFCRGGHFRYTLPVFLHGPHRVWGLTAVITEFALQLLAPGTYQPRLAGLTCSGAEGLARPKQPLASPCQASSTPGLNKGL
# Experiment: NP40-soluble protein abundance relative to vehicle (solubility fold change) (ratio); higher = more soluble protein in presence of GTP
# Method: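 Solubility proteome profiling in Jurkat crude lysate. Lysate was treated with Mg-GTP (0.1-10 mM) for 10 min at room temperature and 3 min at 37 °C, then solubilised with 0.8% NP40 and benzonase, followed by ultracentrifugation. Proteins were quantified by TMT10 LC-MS/MS; the value is the NP40-soluble abundance relative to the NP40-processed vehicle, from 3 independent experiments.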
structure (smiles),measurement,setting,value
Nc1nc2c(ncn2[C@@H]2O[C@H](COP(=O)(O)OP(=O)(O)OP(=O)(O)O)[C@@H](O)[C@H]2O)c(=O)[nH]1 [guanosine triphosphate],NP40-soluble protein abundance,concentration: 0.1mM,0.918 ± 0.07
same,NP40-soluble protein abundance,concentration: 0.5mM,0.901 ± 0.057
same,NP40-soluble protein abundance,concentration: 1mM,1.01 ± 0.054
same,NP40-soluble protein abundance,concentration: 2mM,1.04 ± 0.049
same,NP40-soluble protein abundance,concentration: 4mM,1.07 ± 0.078
same,NP40-soluble protein abundance,concentration: 6mM,1.02 ± 0.033
same,NP40-soluble protein abundance,concentration: 8mM,0.973 ± 0.1
same,NP40-soluble protein abundance,concentration: 10mM,1.04 ± 0.1
